For 2 molecules, binding results are on record in article PMC9997660.

No constants are given. Whether binding was seen depends on the method and setting. Binding seen in cells or lysates may run through a third protein. Some binding calls cover weakened binding; strength is not graded here. Sequences can lack the tags named with a protein.

The target in experiment [1] is T1, 3Flag-PIGQ (human) (UniProt Q9BRB3).
T1 sequence: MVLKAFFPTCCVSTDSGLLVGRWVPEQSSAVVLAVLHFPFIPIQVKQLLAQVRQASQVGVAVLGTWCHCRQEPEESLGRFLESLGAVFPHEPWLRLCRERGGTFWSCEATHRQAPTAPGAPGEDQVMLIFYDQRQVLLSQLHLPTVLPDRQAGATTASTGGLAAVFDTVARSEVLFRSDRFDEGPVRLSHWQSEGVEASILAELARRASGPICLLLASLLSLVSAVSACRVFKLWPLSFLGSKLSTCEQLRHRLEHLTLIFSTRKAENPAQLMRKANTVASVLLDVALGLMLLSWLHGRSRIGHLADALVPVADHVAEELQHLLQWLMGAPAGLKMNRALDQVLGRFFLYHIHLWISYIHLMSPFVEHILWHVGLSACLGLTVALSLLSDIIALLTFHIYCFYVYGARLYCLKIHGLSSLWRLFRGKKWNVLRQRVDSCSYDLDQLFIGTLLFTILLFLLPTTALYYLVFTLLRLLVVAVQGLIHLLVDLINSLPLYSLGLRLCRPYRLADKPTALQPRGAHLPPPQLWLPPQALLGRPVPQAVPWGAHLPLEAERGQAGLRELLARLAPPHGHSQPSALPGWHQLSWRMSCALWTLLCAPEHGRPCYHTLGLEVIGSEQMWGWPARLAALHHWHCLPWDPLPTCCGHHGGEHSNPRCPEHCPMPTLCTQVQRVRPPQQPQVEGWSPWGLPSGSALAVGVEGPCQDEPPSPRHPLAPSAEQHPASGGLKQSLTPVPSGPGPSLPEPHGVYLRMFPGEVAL
Put plainly: co-IP; lysates of PIGS-HRD1-CD55-TKO transfectants immunoprecipitated with anti-Flag beads; WB with Flag, Myc (and HA) antibodies; without and with overexpressed CD55.

For experiment [2], the target named is T2, PIGQ-NTC: PIGQ fused with the N-fragment of Citrine (human) (UniProt Q9BRB3).
T2 sequence: T1 sequence
The experiment in a line: split reporter; split mCitrine (BiFC); constructs co-expressed with RFP-KDEL in PIGS-HRD1-CD55-TKO cells, cultured 2 d, fixed, confocal microscopy.

B1: N6myc-ARV1 (protein, UniProt Q9H2C2 1-271)
chain: MGNGGRSGLQQGKGNVDGVAATPTAASASCQYRCIECNQEAKELYRDYNHGVLKITICKSCQKPVDKYIEYDPVIILINAILCKAQAYRHILFNTQINIHGKLCIFCLLCEAYLRWWQLQDSNQNTAPDDLIRYAKEWDFYRMFAIAALEQTAYFIGIFTFLWVERPMTAKKKPNFILLLKALLLSSYGKLLLIPAVIWEHDYTSVCLKLIKVFVLTSNFQAIRVTLNINRKLSFLAVLSGLLLESIMVYFFQSMEWDVGSDYAIFKSQDF
Take B1: the binding entry in experiment [1] is “binds”.

B2: CTC-ARV1: C-terminal subdomain of mCitrine fused to the N-terminus of ARV1 (protein, UniProt Q9H2C2 1-271)
chain: B1 chain
In the case of B2, the binding entry in experiment [2] is listed as “binds”.
